For one assay, the target named is GST-NEK6-WT (human) (UniProt Q9HC98). Briefly: pull-down; His-FOXO3 protein mixed ('crosslinked') with GST or GST-NEK6 protein, incubated with antibodies and magnetic beads at 4 °C with rotation; western blot; both purified. Background: In western blotting, separated proteins are transferred to a membrane and probed.
For assay [1], the target named is C-MYC (endogenous) (human (endogenous in the human cell lines of the study)) (UniProt P01106). Description: co-IP; endogenous C-MYC and FBXW7 in cells after introducing FOXO3-WT or FOXO3-S7A; lysate incubated with antibodies and magnetic beads at 4 °C overnight; immunoblot.
Assay [2] addresses NEK6 (endogenous) (human (endogenous in human ovarian cancer cell lines)) (UniProt Q9HC98). Description: co-IP; endogenous proteins; cell lysate (IP Lysis Buffer) incubated with antibodies and magnetic beads at 4 °C overnight; immunoblot.
The target of another assay is Flag-NEK6-WT (human) (UniProt Q9HC98). Briefly: co-IP; exogenously overexpressed NEK6 or FOXO3; cell lysate incubated with antibodies and magnetic beads at 4 °C overnight; immunoblot.
The target of assay [3] is NEK6 (endogenous) (human (endogenous in human ovarian cancer cell lines)) (UniProt Q9HC98). Briefly: proximity ligation; NaveniFlex Cell MR on fixed, permeabilised chemosensitive and chemoresistant ovarian cancer cells; red fluorescence.
For assay [4], the target named is His-FOXO3-WT (pCMV, expressed in cells) (UniProt O43524). Briefly: co-IP; exogenously overexpressed NEK6 or FOXO3; cell lysate incubated with antibodies and magnetic beads at 4 °C overnight; immunoblot.

By UniProt entry, the sequences of proteins in these tests, tags left out.
UniProt Q9HC98: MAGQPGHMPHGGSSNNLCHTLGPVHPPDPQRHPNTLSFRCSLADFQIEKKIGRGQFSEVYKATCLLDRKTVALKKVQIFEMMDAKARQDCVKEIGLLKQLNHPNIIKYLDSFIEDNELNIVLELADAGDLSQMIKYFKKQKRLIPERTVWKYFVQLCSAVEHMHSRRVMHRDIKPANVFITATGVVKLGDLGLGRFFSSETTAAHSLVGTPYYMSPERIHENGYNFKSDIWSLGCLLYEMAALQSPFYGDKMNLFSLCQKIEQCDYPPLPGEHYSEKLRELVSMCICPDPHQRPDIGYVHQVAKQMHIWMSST
UniProt P01106: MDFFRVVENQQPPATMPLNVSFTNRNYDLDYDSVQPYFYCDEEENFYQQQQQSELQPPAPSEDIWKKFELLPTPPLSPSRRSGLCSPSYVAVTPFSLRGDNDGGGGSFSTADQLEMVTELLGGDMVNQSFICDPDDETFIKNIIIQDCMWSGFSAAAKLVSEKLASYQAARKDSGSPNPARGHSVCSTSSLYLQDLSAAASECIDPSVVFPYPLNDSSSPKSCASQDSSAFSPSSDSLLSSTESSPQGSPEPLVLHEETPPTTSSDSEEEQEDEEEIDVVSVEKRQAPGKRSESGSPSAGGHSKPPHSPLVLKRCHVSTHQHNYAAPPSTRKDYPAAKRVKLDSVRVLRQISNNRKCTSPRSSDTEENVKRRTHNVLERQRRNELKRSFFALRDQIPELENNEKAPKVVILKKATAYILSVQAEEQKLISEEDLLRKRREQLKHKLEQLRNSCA
UniProt O43524: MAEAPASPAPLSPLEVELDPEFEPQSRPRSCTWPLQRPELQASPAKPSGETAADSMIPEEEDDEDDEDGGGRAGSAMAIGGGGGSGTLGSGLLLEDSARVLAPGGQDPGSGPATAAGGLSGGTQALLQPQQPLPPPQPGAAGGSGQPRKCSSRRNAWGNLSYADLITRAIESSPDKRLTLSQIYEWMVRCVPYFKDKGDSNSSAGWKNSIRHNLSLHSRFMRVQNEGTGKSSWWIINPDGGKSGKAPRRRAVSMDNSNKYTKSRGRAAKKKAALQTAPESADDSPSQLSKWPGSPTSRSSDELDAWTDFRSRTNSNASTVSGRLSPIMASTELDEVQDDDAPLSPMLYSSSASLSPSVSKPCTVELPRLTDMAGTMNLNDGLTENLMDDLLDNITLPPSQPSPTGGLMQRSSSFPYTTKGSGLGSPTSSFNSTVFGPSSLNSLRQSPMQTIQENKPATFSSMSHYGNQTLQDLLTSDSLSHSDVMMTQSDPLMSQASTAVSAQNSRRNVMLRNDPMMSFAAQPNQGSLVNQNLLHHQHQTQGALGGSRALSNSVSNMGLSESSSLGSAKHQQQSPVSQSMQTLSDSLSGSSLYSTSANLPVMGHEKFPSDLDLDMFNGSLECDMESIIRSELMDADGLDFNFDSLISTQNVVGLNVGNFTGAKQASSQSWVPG
UniProt Q969H0: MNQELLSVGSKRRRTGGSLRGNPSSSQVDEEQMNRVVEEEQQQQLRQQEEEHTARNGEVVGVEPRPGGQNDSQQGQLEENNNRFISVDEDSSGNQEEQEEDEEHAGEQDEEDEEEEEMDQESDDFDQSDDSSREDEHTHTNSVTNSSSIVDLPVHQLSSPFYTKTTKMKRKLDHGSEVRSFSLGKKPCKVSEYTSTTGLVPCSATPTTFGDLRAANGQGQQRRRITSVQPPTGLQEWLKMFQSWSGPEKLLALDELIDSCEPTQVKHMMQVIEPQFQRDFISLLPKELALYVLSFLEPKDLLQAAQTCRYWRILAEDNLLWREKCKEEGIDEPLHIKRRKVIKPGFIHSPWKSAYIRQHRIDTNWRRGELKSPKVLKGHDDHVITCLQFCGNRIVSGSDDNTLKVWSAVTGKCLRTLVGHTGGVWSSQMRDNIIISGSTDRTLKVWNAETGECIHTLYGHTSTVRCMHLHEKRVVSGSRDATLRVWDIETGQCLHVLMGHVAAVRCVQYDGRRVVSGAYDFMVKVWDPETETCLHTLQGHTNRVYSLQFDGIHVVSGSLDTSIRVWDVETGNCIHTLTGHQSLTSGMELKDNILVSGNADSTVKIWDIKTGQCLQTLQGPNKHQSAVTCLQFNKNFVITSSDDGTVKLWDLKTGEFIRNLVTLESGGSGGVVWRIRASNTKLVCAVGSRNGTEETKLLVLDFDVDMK

Data on four substances can be found in paper PMC11387829.

These are yes or no findings as the source states them, for the method shown. For part of these data: In cells and extracts the contact can be indirect. Some entries that bind do so weakly or less than the wild type.

Turning to “His-FOXO3-WT (pT7, E. coli) (from UniProt O43524 1-673)”, the binding entry in the assay with GST-NEK6-WT (human) was “binds”. “FBXW7 (endogenous) (from UniProt Q969H0 1-707)”: the binding entry in assay [1] is given as “binds”. As to “FOXO3 (endogenous) (from UniProt O43524 1-673)”, the binding entry (in assay [2]; with Flag-NEK6-WT (human); in assay [3]) was “binds” each time. Turning to “NEK6 (endogenous) (from UniProt Q9HC98 1-313) (enzyme)”, in assay [4], the binding entry is recorded as “binds”.
